Values of other authors as cited in patent US10722483B2, “Treatment of NAFLD and NASH” (CymaBay Therapeutics, Inc., priority 2014, dated 2020).
For at least one compound, name, drawing or mass did not settle the structure.

Experiments:
[1] = 25 mg/day for 72 weeks; p=0.0024 intention-to-treat vs placebo; cited from earlier work
[2] = patients with NASH and IGT or T2DM, 6-month trial, cited from earlier work
[3] = cited from earlier work
[4] = first randomized clinical study in NASH

## CC[C@H]1[C@@H](O)[C@@H]2[C@H](CC[C@]3(C)[C@@H]([C@H](C)CCC(=O)O)CC[C@@H]23)[C@@]2(C)CC[C@@H](O)C[C@@H]12 [OCA, 6α-ethylchenodeoxycholic acid]
[1]
  primary histological endpoint: decrease in NAS of at least two points with no worsening of fibrosis: highly statistically significant improvement

## CCc1ccc(CCOc2ccc(CC3SC(=O)NC3=O)cc2)nc1 (stereo not shown) [pioglitazone]
[2]
  glycemic control, insulin sensitivity, indicators of systemic inflammation, and liver histology: improved
[2]; p<0.002
  decrease in necroinflammation: approximately 50%
[2]; p=0.08
  reduction in fibrosis: 37%

## CN(CCOc1ccc(CC2SC(=O)NC2=O)cc1)c1ccccn1 (stereo not shown) [rosiglitazone]
[3]; [4]
  IR, plasma alanine aminotransferase (ALT) levels and steatosis: a reduction
  effect on necrosis, inflammation, or fibrosis: no significant effect
[3]; preliminary report
  benefit in 2-year, open-label follow-up: no significant benefit
